Assay results: publication PMC12077085, “Structural elements of cyanobacterial co-factor-independent phosphoglycerate mutase that mediate regulation by PirC” (mBio, 2025)
No constants are given. Whether binding was seen depends on the method and setting. Where a sequence is shown, tags or fusion partners need not be part of it.

Target: strep-tagged iPGAM (2,3-bisphosphoglycerate-independent phosphoglycerate mutase, Slr1945) of Synechocystis sp. PCC 6803, wild type (Synechocystis sp. PCC 6803) (UniProt P74507)
Assay: mass photometry; Refeyn OneMP; strep-iPGAM and strep-PirC alone (iPGAM 10 nM) and mixed at an iPGAM-PirC ratio of 1:3; both purified

B1: strep-tagged iPGAM (2,3-bisphosphoglycerate-independent phosphoglycerate mutase, Slr1945) of Synechocystis sp. PCC 6803, wild type (enzyme, UniProt P74507 1-532)
chain: MAEAPIAPVVLVILDGWGYRPDTRANAIAQANTPIMDSLIAAYPNTLVNTSGKDVGLPKGQMGNSEVGHLNLGAGRVVPQELVRISDAIEDGTFFDNQALIEVCQRVRDRRGKLHLIGLCSDGGVHSHIDHLLGLIDLAKLQGISQLCIHAITDGRDTPTNEGAHFVQQIQAHLEKIGLGRIVSVSGRYYALDRDRRWDRVEKAYRVMTEDGVGDGRSAAQVIKDYYASDITDEFIPPTRIGAGAIASGDGVIFYNFRPDRARQLCYALVNPSFDGFPRERIQPLDFVTFTQYDPALPVVVAFEPQNLNNILGEIISRQGMKQFRTAETEKYPHVTYFFNGGLEQPFAGEDRELIQSPMVSTYDKAPQMSAKAVTDAVCRAMEKGIYSLVVVNYANPDMVGHTGKLKEAIQAIETVDLNLGRLLASAAKVGGTVLITADHGNAEYMSDESGNPWTAHTTNPVPFILVEGEGRKIPGHGGEVKLREGGKLADIAPTILDILQLPVPAEMTGKTLIDQPLVEIKANRTPVNLSR
binding: no binding (tested: 10 nM)
